# Data as given in the supplement of paper PMC6411743.
# Protein sequences, listed by entry. Tags and fused reporters are not part of them. Lines headed by an entry give the natural chain unless they say otherwise; changes in a name come on top.
# UniProt Q9NRZ9: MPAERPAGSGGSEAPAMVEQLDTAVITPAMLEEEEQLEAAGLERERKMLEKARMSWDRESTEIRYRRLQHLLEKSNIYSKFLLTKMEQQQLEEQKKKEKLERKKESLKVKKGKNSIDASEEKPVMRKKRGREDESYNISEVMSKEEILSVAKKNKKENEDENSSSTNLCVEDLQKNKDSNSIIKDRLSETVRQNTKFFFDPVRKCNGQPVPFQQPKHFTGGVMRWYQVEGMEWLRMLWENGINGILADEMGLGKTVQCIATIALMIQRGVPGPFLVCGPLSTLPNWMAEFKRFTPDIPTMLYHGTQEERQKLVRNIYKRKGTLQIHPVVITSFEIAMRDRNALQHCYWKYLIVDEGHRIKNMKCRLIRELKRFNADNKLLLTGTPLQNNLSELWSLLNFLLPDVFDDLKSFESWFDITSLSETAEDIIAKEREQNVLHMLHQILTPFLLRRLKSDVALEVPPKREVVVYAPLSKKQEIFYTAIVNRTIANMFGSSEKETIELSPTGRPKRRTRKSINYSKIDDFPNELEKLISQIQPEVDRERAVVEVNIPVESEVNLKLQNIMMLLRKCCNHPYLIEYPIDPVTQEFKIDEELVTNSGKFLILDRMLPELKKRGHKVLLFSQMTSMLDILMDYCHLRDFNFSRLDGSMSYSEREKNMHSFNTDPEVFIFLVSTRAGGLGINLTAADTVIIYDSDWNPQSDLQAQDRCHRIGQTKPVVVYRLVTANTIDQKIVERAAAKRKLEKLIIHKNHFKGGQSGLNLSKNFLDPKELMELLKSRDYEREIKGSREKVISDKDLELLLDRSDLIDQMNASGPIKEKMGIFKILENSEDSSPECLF
# UniProt P09211: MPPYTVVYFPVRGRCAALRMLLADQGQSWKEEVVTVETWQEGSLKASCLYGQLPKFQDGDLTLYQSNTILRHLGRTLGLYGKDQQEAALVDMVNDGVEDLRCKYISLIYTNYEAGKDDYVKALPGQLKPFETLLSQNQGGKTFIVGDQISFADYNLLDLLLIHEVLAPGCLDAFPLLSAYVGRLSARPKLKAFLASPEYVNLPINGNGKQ
# UniProt O00512: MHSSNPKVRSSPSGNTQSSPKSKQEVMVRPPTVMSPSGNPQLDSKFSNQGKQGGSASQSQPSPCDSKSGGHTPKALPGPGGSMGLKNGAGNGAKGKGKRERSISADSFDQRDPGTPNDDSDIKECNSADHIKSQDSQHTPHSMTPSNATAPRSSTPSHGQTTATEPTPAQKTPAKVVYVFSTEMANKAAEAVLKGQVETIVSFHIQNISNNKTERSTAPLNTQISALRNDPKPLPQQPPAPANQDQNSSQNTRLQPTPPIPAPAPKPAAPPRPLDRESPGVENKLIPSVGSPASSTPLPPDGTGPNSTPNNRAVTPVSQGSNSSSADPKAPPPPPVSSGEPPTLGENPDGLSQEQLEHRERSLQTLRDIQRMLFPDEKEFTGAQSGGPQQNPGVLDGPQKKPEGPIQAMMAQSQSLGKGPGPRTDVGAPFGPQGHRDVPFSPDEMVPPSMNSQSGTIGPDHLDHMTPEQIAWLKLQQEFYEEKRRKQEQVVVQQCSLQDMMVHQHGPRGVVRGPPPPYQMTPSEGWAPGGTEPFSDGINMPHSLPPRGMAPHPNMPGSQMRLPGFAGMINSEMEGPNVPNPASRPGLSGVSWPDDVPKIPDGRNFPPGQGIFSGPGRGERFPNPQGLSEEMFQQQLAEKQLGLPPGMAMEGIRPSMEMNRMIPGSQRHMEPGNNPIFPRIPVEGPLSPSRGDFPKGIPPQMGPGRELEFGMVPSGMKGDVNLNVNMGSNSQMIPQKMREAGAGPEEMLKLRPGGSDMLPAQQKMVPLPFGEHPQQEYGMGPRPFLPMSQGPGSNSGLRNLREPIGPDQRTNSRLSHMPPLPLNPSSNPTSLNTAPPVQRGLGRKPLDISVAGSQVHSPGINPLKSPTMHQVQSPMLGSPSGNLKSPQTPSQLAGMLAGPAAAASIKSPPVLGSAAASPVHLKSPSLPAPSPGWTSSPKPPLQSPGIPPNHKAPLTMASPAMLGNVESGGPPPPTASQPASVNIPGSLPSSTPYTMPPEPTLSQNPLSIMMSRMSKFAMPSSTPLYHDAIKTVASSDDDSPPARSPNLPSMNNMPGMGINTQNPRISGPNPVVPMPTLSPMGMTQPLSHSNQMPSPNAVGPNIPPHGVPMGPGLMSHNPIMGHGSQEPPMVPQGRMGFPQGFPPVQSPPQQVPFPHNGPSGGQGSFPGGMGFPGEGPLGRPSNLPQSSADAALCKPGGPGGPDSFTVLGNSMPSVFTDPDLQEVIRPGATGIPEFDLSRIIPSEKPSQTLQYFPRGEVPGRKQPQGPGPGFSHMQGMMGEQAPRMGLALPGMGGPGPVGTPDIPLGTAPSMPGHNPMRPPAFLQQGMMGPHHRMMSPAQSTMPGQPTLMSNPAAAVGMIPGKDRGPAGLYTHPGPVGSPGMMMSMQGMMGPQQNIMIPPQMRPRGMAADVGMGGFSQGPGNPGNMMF
# UniProt Q9Y4E1, whole entry: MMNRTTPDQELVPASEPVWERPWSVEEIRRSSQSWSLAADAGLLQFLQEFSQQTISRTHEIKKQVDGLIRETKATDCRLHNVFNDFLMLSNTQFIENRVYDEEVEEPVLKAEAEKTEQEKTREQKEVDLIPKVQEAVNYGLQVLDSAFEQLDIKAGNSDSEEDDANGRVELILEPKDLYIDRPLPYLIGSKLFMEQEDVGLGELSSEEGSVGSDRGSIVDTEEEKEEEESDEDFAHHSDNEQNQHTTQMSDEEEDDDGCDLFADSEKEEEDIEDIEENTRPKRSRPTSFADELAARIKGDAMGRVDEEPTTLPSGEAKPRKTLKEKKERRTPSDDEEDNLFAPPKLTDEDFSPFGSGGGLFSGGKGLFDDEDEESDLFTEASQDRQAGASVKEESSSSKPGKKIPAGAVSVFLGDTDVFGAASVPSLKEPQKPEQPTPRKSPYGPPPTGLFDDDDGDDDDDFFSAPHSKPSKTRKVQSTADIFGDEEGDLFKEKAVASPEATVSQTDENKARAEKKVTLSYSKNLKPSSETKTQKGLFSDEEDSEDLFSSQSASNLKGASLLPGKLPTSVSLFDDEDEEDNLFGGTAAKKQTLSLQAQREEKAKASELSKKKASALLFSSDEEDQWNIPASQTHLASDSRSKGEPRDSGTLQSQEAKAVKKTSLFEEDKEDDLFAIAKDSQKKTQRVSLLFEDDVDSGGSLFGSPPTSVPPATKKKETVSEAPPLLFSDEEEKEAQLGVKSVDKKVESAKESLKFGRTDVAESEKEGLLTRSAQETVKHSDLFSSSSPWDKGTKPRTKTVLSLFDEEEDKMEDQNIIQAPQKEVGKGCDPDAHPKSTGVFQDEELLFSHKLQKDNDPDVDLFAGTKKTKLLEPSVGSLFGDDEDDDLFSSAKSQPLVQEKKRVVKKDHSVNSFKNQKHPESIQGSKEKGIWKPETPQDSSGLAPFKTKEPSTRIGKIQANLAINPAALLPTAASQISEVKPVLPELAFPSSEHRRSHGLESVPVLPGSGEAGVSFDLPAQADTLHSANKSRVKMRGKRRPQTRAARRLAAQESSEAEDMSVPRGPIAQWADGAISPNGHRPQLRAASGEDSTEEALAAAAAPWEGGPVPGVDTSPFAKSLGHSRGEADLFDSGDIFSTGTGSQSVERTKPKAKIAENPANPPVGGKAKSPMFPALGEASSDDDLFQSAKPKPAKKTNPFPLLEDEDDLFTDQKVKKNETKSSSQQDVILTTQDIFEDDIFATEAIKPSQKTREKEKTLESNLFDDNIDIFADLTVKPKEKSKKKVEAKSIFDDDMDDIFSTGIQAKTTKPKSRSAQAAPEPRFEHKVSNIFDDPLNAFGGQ
# UniProt Q86UU0: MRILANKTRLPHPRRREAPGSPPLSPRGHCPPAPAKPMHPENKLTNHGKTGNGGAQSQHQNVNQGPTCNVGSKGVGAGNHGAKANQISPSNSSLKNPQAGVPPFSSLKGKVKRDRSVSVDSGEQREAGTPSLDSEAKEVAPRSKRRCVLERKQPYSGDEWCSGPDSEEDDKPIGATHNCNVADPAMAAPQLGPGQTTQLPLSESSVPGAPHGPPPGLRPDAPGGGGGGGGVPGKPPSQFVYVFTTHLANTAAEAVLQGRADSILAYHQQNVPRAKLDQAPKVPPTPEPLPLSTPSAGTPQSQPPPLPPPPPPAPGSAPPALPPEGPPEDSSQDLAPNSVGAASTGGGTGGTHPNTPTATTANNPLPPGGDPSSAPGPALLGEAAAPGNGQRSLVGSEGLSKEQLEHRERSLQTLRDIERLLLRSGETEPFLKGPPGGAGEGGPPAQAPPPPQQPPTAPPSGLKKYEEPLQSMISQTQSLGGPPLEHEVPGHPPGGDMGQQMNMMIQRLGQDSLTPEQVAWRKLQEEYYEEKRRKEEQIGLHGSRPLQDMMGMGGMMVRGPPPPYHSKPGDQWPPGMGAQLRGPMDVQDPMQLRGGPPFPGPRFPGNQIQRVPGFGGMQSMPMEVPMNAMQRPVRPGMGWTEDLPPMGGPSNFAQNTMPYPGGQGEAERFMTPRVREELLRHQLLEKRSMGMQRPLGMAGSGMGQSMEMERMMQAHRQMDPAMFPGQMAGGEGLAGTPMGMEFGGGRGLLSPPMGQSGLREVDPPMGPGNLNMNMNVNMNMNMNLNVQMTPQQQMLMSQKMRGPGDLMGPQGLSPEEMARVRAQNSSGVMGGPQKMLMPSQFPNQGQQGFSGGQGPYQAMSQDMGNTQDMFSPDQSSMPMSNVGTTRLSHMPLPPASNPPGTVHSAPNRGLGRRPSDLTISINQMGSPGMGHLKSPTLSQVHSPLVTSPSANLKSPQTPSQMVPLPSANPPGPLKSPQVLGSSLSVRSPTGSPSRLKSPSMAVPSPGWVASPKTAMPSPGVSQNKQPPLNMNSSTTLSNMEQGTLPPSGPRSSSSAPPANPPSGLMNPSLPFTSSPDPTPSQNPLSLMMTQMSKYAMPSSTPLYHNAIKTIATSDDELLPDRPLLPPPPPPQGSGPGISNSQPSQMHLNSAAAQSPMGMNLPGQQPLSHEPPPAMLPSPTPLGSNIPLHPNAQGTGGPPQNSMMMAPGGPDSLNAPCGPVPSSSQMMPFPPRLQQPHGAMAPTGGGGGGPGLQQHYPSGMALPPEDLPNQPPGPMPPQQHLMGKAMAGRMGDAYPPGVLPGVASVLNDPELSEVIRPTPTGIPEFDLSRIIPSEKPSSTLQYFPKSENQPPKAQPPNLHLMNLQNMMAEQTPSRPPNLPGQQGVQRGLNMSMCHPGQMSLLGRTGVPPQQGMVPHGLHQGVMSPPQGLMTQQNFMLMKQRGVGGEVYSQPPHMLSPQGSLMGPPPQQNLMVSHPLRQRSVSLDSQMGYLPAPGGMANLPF
# UniProt P04632: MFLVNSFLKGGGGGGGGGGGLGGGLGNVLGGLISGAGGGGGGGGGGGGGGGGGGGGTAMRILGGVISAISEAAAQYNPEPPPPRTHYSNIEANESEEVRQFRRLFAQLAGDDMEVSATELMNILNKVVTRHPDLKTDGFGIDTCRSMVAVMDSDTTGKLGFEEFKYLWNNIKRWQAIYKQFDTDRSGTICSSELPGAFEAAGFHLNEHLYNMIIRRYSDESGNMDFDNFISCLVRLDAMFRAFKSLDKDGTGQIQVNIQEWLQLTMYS
# UniProt Q9UHQ1: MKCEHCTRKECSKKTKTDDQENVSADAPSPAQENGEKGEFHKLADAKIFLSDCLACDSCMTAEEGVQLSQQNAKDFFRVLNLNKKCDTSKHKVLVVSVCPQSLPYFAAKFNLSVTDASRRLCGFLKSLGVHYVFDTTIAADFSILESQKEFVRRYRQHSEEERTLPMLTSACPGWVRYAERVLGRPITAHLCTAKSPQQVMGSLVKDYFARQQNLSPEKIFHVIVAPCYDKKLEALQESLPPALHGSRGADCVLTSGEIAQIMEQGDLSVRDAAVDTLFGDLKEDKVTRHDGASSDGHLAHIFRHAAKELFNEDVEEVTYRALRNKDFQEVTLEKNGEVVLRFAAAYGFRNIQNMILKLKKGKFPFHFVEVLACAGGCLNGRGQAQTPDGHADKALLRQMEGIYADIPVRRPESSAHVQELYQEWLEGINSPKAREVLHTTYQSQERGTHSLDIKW
# UniProt Q9H2U2: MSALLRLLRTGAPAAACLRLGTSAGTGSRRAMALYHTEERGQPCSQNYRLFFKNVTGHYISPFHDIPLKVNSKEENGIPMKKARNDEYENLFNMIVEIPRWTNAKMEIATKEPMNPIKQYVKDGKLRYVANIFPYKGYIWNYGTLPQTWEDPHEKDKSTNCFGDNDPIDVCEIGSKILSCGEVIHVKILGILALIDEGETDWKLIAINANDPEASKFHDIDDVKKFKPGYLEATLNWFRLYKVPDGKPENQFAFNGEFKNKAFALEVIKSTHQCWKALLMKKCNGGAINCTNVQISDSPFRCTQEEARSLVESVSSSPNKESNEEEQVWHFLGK
# UniProt P56556, whole entry: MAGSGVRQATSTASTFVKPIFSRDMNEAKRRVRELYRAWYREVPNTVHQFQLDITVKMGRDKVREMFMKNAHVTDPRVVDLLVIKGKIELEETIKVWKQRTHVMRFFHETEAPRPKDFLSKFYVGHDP
# ± gives the standard deviation of the averaged measurements. This is a selection; strong and weak results do not stand in their true shares. Small differences around the control level are noise.
# Compound: Nc1ncnc2c1ncn2[C@@H]1O[C@H](COP(=O)(O)OP(=O)(O)OP(=O)(O)O)[C@@H](O)[C@H]1O [adenosine triphosphate]
# Test: NP40-soluble protein abundance relative to vehicle (solubility fold change) (ratio); higher = more soluble protein in presence of ATP
# Procedure, shortened: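 Data come from three independent experiments in which Dounce-homogenised Jurkat crude lysate was treated at eight concentrations from 0.1 to 10 mM. Treatment ran 10 min at room temperature and then 3 min at 37 °C, after which 0.8% NP40 and benzonase were added for 60 min at 4 °C before ultracentrifugation. The supernatant underwent TMT labelling and LC-MS/MS, and vsn-normalised intensities were expressed as fold change against the detergent-processed vehicle in each replicate.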
target,measurement,setting,value
A0A0C4DGH2|P62070 and related entries (UniProt P62070),NP40-soluble protein abundance,concentration: 0.1mM,1.04 ± 0.035
same,NP40-soluble protein abundance,concentration: 0.5mM,1.01 ± 0.03
A0A087X0R7|Q9H4L4 (UniProt Q9H4L4),NP40-soluble protein abundance,concentration: 0.1mM,1.03 ± 0.13
same,NP40-soluble protein abundance,concentration: 0.5mM,0.956 ± 0.087
A0A0A0MTG4|P82094 (UniProt P82094),NP40-soluble protein abundance,concentration: 0.1mM,0.9808 ± 0.0097
same,NP40-soluble protein abundance,concentration: 0.5mM,0.986 ± 0.04
A0A087X0R0|F5H6S1 and related entries (UniProt O15550),NP40-soluble protein abundance,concentration: 0.1mM,0.999 ± 0.063
same,NP40-soluble protein abundance,concentration: 0.5mM,1.01 ± 0.1
A0A0B4J1V9|Q9NRZ9 and related entries (UniProt Q9NRZ9),NP40-soluble protein abundance,concentration: 0.1mM,1.06 ± 0.03
same,NP40-soluble protein abundance,concentration: 0.5mM,1.21 ± 0.032
A0A0A0MTH9|O14981 (UniProt O14981),NP40-soluble protein abundance,concentration: 0.1mM,1.02 ± 0.012
same,NP40-soluble protein abundance,concentration: 0.5mM,1.01 ± 0.015
A0A0A6YY92|P30566 (UniProt P30566),NP40-soluble protein abundance,concentration: 0.1mM,1.04 ± 0.091
same,NP40-soluble protein abundance,concentration: 0.5mM,1.05 ± 0.076
A0A087WVF4|O14646 and related entries (UniProt O14646),NP40-soluble protein abundance,concentration: 0.1mM,1.01 ± 0.017
same,NP40-soluble protein abundance,concentration: 0.5mM,0.987 ± 0.068
A0A0A0MSF9|Q8N954 (UniProt Q8N954),NP40-soluble protein abundance,concentration: 0.1mM,0.909 ± 0.049
same,NP40-soluble protein abundance,concentration: 0.5mM,0.931 ± 0.057
A0A087WUH0|P28715 (UniProt P28715),NP40-soluble protein abundance,concentration: 0.1mM,1.01 ± 0.03
same,NP40-soluble protein abundance,concentration: 0.5mM,1 ± 0.059
A0A087X243|P09211 (UniProt P09211),NP40-soluble protein abundance,concentration: 0.1mM,1.03 ± 0.059
same,NP40-soluble protein abundance,concentration: 0.5mM,1.04 ± 0.048
A0A0A0MRV0|Q9P2E9 (UniProt Q9P2E9),NP40-soluble protein abundance,concentration: 0.1mM,0.947 ± 0.043
same,NP40-soluble protein abundance,concentration: 0.5mM,0.95 ± 0.038
A0A087WSW9|A0A087WSY9|Q16881 and related entries (UniProt Q16881),NP40-soluble protein abundance,concentration: 0.1mM,1.04 ± 0.071
same,NP40-soluble protein abundance,concentration: 0.5mM,1.03 ± 0.05
A0A096LP25|Q2M2I8 and related entries (UniProt Q2M2I8),NP40-soluble protein abundance,concentration: 0.1mM,1.02 ± 0.044
same,NP40-soluble protein abundance,concentration: 0.5mM,1.03 ± 0.039
A0A0C4DFN8|P22570 and related entries (UniProt P22570),NP40-soluble protein abundance,concentration: 0.1mM,1.06 ± 0.064
same,NP40-soluble protein abundance,concentration: 0.5mM,1.07 ± 0.059
A0A0A0MSL4|A0A0G2JHL1|A0A0G2JJ73|A0A0G2JK30|A0A0G2JK37|A0A0G2JKD0|F6QYZ9 and related entries (UniProt O95872),NP40-soluble protein abundance,concentration: 0.1mM,1.75 ± 1.1
same,NP40-soluble protein abundance,concentration: 0.5mM,0.955 ± 0.049
A0A0A0MT60|Q5T1M5 (UniProt Q5T1M5),NP40-soluble protein abundance,concentration: 0.1mM,0.9822 ± 0.0098
same,NP40-soluble protein abundance,concentration: 0.5mM,0.992 ± 0.057
A0A087WVU5|O00512 (UniProt O00512),NP40-soluble protein abundance,concentration: 0.1mM,0.942 ± 0.18
same,NP40-soluble protein abundance,concentration: 0.5mM,1.03 ± 0.082
A0A0A0MS70|A0A0A0MST0|H0Y4G9 and related entries (UniProt Q99836),NP40-soluble protein abundance,concentration: 0.1mM,1.02 ± 0.041
same,NP40-soluble protein abundance,concentration: 0.5mM,0.983 ± 0.089
A0A096LPC5|A0A0A0MR88|Q9Y4E1-4|Q9Y4E1-6 (UniProt Q9Y4E1),NP40-soluble protein abundance,concentration: 0.1mM,0.99 ± 0.059
same,NP40-soluble protein abundance,concentration: 0.5mM,0.971 ± 0.082
A0A087WZX0|Q86UU0 and related entries (UniProt Q86UU0),NP40-soluble protein abundance,concentration: 0.1mM,0.995 ± 0.022
same,NP40-soluble protein abundance,concentration: 0.5mM,0.9677 ± 0.0067
A0A0C4DGQ5|P04632 (UniProt P04632),NP40-soluble protein abundance,concentration: 0.1mM,0.946 ± 0.024
same,NP40-soluble protein abundance,concentration: 0.5mM,0.853 ± 0.11
same,NP40-soluble protein abundance,concentration: 1mM,0.9315 ± 0.0081
same,NP40-soluble protein abundance,concentration: 2mM,0.964 ± 0.077
same,NP40-soluble protein abundance,concentration: 4mM,0.923 ± 0.022
same,NP40-soluble protein abundance,concentration: 6mM,0.884 ± 0.039
same,NP40-soluble protein abundance,concentration: 8mM,0.885 ± 0.0089
same,NP40-soluble protein abundance,concentration: 10mM,0.875 ± 0.06
A0A0A0MRR7|P09234 (UniProt P09234),NP40-soluble protein abundance,concentration: 0.1mM,0.998 ± 0.11
same,NP40-soluble protein abundance,concentration: 0.5mM,1.21 ± 0.058
same,NP40-soluble protein abundance,concentration: 1mM,1.34 ± 0.087
same,NP40-soluble protein abundance,concentration: 2mM,1.39 ± 0.078
same,NP40-soluble protein abundance,concentration: 4mM,1.56 ± 0.062
same,NP40-soluble protein abundance,concentration: 6mM,1.87 ± 0.2
same,NP40-soluble protein abundance,concentration: 8mM,1.83 ± 0.041
same,NP40-soluble protein abundance,concentration: 10mM,1.84 ± 0.1
A0A0A0MRU8|Q9Y4X4 (UniProt Q9Y4X4),NP40-soluble protein abundance,concentration: 0.1mM,0.986 ± 0.15
same,NP40-soluble protein abundance,concentration: 0.5mM,0.965 ± 0.058
A0A0B4J1Z1|C9JAB2 and related entries (UniProt Q16629),NP40-soluble protein abundance,concentration: 0.1mM,1.08 ± 0.13
same,NP40-soluble protein abundance,concentration: 0.5mM,1.46 ± 0.21
same,NP40-soluble protein abundance,concentration: 1mM,1.7 ± 0.28
same,NP40-soluble protein abundance,concentration: 2mM,1.77 ± 0.28
same,NP40-soluble protein abundance,concentration: 4mM,1.89 ± 0.28
same,NP40-soluble protein abundance,concentration: 6mM,2.04 ± 0.31
same,NP40-soluble protein abundance,concentration: 8mM,1.98 ± 0.38
same,NP40-soluble protein abundance,concentration: 10mM,2.09 ± 0.36
A0A087WTM7|P04114 (UniProt P04114),NP40-soluble protein abundance,concentration: 0.1mM,1.1 ± 0.11
same,NP40-soluble protein abundance,concentration: 0.5mM,0.949 ± 0.064
same,NP40-soluble protein abundance,concentration: 1mM,1.09 ± 0.039
same,NP40-soluble protein abundance,concentration: 2mM,1.05 ± 0.029
same,NP40-soluble protein abundance,concentration: 4mM,0.98 ± 0.11
same,NP40-soluble protein abundance,concentration: 6mM,0.965 ± 0.086
same,NP40-soluble protein abundance,concentration: 8mM,0.976 ± 0.082
same,NP40-soluble protein abundance,concentration: 10mM,0.989 ± 0.074
A0A087WY55|Q9NP79 (UniProt Q9NP79),NP40-soluble protein abundance,concentration: 0.1mM,0.909 ± 0.12
same,NP40-soluble protein abundance,concentration: 0.5mM,0.885 ± 0.16
A0A088AWN8|Q9UHQ1 and related entries (UniProt Q9UHQ1),NP40-soluble protein abundance,concentration: 0.1mM,1.01 ± 0.074
same,NP40-soluble protein abundance,concentration: 0.5mM,0.918 ± 0.14
A0A0A0MTC1|A0A0A0MTR7 (UniProt Q63HN8),NP40-soluble protein abundance,concentration: 0.1mM,1.05 ± 0.063
same,NP40-soluble protein abundance,concentration: 0.5mM,1.09 ± 0.049
same,NP40-soluble protein abundance,concentration: 1mM,1.15 ± 0.14
same,NP40-soluble protein abundance,concentration: 2mM,1.11 ± 0.096
same,NP40-soluble protein abundance,concentration: 4mM,1.12 ± 0.083
same,NP40-soluble protein abundance,concentration: 6mM,1.03 ± 0.074
same,NP40-soluble protein abundance,concentration: 8mM,1.2 ± 0.049
same,NP40-soluble protein abundance,concentration: 10mM,1.11 ± 0.031
A0A087WYN9|Q7Z478 (UniProt Q7Z478),NP40-soluble protein abundance,concentration: 0.1mM,1.21 ± 0.022
same,NP40-soluble protein abundance,concentration: 0.5mM,2.1 ± 0.045
same,NP40-soluble protein abundance,concentration: 1mM,2.24 ± 0.062
same,NP40-soluble protein abundance,concentration: 2mM,2.31 ± 0.051
same,NP40-soluble protein abundance,concentration: 4mM,2.45 ± 0.092
same,NP40-soluble protein abundance,concentration: 6mM,2.57 ± 0.045
same,NP40-soluble protein abundance,concentration: 8mM,2.68 ± 0.07
same,NP40-soluble protein abundance,concentration: 10mM,2.74 ± 0.062
A0A0C4DGB9|Q9H2U2 (UniProt Q9H2U2),NP40-soluble protein abundance,concentration: 0.1mM,1.02 ± 0.04
same,NP40-soluble protein abundance,concentration: 0.5mM,1.01 ± 0.031
same,NP40-soluble protein abundance,concentration: 1mM,0.971 ± 0.022
same,NP40-soluble protein abundance,concentration: 2mM,0.97 ± 0.029
same,NP40-soluble protein abundance,concentration: 4mM,0.953 ± 0.03
same,NP40-soluble protein abundance,concentration: 6mM,0.93 ± 0.051
same,NP40-soluble protein abundance,concentration: 8mM,0.952 ± 0.038
same,NP40-soluble protein abundance,concentration: 10mM,0.919 ± 0.037
A0A0C4DGS0|P56556 (UniProt P56556),NP40-soluble protein abundance,concentration: 0.1mM,0.917 ± 0.055
same,NP40-soluble protein abundance,concentration: 0.5mM,0.944 ± 0.14
same,NP40-soluble protein abundance,concentration: 1mM,0.969 ± 0.066
same,NP40-soluble protein abundance,concentration: 2mM,0.922 ± 0.055
same,NP40-soluble protein abundance,concentration: 4mM,0.901 ± 0.046
same,NP40-soluble protein abundance,concentration: 6mM,0.875 ± 0.066
same,NP40-soluble protein abundance,concentration: 8mM,0.926 ± 0.053
same,NP40-soluble protein abundance,concentration: 10mM,0.909 ± 0.031
A0A0A0MT22|M9MML4 and related entries (UniProt P08575),NP40-soluble protein abundance,concentration: 0.1mM,0.9793 ± 0.0079
same,NP40-soluble protein abundance,concentration: 0.5mM,0.985 ± 0.024
same,NP40-soluble protein abundance,concentration: 1mM,0.946 ± 0.026
same,NP40-soluble protein abundance,concentration: 2mM,0.9679 ± 0.0084
same,NP40-soluble protein abundance,concentration: 4mM,0.9321 ± 0.0056
same,NP40-soluble protein abundance,concentration: 6mM,0.967 ± 0.014
same,NP40-soluble protein abundance,concentration: 8mM,0.918 ± 0.018
same,NP40-soluble protein abundance,concentration: 10mM,0.943 ± 0.036
A0A087WWP8 (UniProt Q5VWQ0),NP40-soluble protein abundance,concentration: 0.1mM,1.1 ± 0.022
same,NP40-soluble protein abundance,concentration: 0.5mM,1.41 ± 0.078
same,NP40-soluble protein abundance,concentration: 1mM,1.48 ± 0.058
same,NP40-soluble protein abundance,concentration: 2mM,1.53 ± 0.045
same,NP40-soluble protein abundance,concentration: 4mM,1.61 ± 0.043
same,NP40-soluble protein abundance,concentration: 6mM,1.68 ± 0.048
same,NP40-soluble protein abundance,concentration: 8mM,1.68 ± 0.069
same,NP40-soluble protein abundance,concentration: 10mM,1.69 ± 0.063

# Reprinted at random: five entries already listed
target,measurement,setting,value
A0A088AWN8|Q9UHQ1 and related entries (UniProt Q9UHQ1),NP40-soluble protein abundance,concentration: 0.1mM,1.01 ± 0.074
A0A0C4DGQ5|P04632 (UniProt P04632),NP40-soluble protein abundance,concentration: 10mM,0.875 ± 0.06
A0A0A0MT22|M9MML4 and related entries (UniProt P08575),NP40-soluble protein abundance,concentration: 1mM,0.946 ± 0.026
A0A0C4DGQ5|P04632 (UniProt P04632),NP40-soluble protein abundance,concentration: 1mM,0.9315 ± 0.0081
A0A0B4J1Z1|C9JAB2 and related entries (UniProt Q16629),NP40-soluble protein abundance,concentration: 1mM,1.7 ± 0.28

# Reformatted as tab-separated lines: part of the list above
target	measurement	setting	value
A0A087WZX0|Q86UU0 and related entries (UniProt Q86UU0)	NP40-soluble protein abundance	concentration: 0.5mM	0.9677 ± 0.0067
A0A0C4DGQ5|P04632 (UniProt P04632)	NP40-soluble protein abundance	concentration: 0.1mM	0.946 ± 0.024
same	NP40-soluble protein abundance	concentration: 0.5mM	0.853 ± 0.11
